Reference: PMC4786724, “NdhM Subunit Is Required for the Stability and the Function of NAD(P)H Dehydrogenase Complexes Involved in CO2 Uptake in Synechocystis sp. Strain PCC 6803* ^([image sbox.jpg])” (The Journal of Biological Chemistry, 2015)

How the values were obtained:
[1] = molecular target: T1, GST-NdhM (Synechocystis sp. PCC 6803) (UniProt P74338); assay: pull-down; GST-NdhM on glutathione-Sepharose 4B resin as bait, His-tagged Ndh subunits as prey; 2 h at 4 °C in 20 mM Tris-HCl pH 7.5, 100 mM NaCl, 0.1 mM EDTA, 0.2% Triton, 10% glycerol; washed five times with 300 mM NaCl, 0.5% Nonidet P-40; eluates blotted with anti-His antibody; both purified
T1 sequence: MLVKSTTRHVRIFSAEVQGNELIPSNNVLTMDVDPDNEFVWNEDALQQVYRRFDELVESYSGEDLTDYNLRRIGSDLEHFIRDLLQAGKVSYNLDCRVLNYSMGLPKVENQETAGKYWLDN

[2] = molecular target: T2, NdhM bait construct in pGBKT7 (Gal4 DNA binding domain) (Synechocystis sp. PCC 6803) (UniProt P74338); assay: two-hybrid; NdhM in pGBKT7 (Gal4 DNA binding domain) as bait, Ndh subunits in pGADT7 (Gal4 activation domain) as prey; S. cerevisiae AH109; growth on medium lacking Trp, Leu, His and Ade, 30 °C, 6 days
T2 sequence: T1 sequence

| binding [1] | binding [2] | Substance |
| --- | --- | --- |
| no binding | – | NdhS-His6 (Synechocystis sp. PCC 6803) |
| – | no binding | NdhS prey construct in pGADT7 (Gal4 activation domain) (Synechocystis sp. PCC 6803) |

These are yes or no findings as the source states them, for the method shown. For some assays here: Sequences can lack the tags named with a protein.
